# Data published in the supplement of paper PMC6411743.
# The chains behind the UniProt entries cited, without tags or fusion partners. Where a name states a change or a piece, a line headed by the entry shows the natural chain unless it says otherwise.
# UniProt Q86WJ1: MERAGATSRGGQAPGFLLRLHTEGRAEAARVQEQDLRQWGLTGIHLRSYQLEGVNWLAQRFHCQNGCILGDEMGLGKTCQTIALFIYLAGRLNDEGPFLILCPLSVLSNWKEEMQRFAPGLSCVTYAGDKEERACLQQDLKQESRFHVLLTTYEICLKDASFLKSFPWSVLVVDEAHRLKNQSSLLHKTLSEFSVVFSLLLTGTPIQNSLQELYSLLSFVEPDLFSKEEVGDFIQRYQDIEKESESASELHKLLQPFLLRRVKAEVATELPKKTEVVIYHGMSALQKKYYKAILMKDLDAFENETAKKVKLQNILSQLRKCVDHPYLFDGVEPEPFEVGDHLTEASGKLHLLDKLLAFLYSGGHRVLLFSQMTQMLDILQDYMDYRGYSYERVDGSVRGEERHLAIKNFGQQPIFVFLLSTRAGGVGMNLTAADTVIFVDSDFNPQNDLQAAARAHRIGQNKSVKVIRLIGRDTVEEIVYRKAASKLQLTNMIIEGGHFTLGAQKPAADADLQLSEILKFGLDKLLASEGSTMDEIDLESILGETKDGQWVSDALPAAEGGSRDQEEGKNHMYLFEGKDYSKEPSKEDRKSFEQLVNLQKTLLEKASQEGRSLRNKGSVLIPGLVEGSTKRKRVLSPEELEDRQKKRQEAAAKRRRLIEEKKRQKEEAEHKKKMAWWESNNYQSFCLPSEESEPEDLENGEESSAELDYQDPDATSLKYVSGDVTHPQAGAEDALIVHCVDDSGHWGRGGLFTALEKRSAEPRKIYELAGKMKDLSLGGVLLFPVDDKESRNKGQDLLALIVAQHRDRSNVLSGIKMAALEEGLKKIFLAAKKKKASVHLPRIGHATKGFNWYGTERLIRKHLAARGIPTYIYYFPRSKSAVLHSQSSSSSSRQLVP
# UniProt Q86U44, whole entry: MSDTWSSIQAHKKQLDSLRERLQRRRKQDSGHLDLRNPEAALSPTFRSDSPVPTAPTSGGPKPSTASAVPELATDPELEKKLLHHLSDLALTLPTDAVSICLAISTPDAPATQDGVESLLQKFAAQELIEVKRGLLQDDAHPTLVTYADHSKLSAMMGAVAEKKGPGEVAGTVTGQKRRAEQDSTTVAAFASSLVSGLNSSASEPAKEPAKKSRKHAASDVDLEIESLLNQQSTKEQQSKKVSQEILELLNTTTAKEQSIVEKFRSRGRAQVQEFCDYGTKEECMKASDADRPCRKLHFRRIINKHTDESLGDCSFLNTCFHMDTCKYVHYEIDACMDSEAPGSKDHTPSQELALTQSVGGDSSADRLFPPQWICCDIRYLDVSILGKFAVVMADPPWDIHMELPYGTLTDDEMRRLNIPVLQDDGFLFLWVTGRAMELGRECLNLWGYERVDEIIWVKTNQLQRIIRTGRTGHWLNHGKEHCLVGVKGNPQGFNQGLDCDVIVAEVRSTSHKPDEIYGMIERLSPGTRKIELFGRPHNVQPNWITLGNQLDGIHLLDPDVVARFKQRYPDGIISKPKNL
# UniProt Q6P1M0: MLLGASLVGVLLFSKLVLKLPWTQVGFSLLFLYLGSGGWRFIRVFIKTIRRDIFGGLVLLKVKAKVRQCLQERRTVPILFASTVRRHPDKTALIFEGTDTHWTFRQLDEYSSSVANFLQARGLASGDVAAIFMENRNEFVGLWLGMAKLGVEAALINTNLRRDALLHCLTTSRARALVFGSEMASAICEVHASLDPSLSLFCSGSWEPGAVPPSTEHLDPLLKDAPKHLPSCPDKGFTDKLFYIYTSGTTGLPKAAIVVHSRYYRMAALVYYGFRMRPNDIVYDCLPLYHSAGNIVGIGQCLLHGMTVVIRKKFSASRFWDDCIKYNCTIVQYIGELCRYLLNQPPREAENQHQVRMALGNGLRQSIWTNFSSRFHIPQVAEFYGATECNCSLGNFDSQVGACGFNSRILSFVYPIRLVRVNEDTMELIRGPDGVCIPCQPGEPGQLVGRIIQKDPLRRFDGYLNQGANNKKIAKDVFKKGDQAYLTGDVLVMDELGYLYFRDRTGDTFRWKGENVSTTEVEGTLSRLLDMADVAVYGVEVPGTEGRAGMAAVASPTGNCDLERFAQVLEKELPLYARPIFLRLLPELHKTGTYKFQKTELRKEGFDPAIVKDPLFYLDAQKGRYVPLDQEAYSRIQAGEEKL
# UniProt Q6P179: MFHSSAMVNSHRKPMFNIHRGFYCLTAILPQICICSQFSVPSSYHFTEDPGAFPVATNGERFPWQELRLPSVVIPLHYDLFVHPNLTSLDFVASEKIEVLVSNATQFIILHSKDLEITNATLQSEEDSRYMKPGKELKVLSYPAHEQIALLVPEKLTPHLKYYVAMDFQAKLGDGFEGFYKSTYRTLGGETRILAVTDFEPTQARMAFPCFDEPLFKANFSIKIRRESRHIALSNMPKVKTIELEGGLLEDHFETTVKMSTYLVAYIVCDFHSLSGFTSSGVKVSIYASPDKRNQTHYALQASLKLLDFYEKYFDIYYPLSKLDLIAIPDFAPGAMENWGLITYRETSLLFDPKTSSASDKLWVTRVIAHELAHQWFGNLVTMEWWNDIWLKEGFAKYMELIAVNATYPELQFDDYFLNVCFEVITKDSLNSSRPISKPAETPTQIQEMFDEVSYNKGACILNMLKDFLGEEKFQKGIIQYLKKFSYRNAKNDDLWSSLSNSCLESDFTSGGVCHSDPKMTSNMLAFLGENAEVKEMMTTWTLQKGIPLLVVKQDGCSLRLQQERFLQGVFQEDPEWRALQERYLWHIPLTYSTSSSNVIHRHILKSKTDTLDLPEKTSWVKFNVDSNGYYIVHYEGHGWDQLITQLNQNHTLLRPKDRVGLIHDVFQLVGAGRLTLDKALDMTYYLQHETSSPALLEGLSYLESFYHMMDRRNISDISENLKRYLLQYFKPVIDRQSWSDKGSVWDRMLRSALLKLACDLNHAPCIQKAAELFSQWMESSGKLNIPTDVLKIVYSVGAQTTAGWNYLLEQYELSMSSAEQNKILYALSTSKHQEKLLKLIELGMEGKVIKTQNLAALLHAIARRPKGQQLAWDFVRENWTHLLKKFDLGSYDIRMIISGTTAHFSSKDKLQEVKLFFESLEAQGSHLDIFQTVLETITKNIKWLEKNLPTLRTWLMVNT
# UniProt Q5VWN6: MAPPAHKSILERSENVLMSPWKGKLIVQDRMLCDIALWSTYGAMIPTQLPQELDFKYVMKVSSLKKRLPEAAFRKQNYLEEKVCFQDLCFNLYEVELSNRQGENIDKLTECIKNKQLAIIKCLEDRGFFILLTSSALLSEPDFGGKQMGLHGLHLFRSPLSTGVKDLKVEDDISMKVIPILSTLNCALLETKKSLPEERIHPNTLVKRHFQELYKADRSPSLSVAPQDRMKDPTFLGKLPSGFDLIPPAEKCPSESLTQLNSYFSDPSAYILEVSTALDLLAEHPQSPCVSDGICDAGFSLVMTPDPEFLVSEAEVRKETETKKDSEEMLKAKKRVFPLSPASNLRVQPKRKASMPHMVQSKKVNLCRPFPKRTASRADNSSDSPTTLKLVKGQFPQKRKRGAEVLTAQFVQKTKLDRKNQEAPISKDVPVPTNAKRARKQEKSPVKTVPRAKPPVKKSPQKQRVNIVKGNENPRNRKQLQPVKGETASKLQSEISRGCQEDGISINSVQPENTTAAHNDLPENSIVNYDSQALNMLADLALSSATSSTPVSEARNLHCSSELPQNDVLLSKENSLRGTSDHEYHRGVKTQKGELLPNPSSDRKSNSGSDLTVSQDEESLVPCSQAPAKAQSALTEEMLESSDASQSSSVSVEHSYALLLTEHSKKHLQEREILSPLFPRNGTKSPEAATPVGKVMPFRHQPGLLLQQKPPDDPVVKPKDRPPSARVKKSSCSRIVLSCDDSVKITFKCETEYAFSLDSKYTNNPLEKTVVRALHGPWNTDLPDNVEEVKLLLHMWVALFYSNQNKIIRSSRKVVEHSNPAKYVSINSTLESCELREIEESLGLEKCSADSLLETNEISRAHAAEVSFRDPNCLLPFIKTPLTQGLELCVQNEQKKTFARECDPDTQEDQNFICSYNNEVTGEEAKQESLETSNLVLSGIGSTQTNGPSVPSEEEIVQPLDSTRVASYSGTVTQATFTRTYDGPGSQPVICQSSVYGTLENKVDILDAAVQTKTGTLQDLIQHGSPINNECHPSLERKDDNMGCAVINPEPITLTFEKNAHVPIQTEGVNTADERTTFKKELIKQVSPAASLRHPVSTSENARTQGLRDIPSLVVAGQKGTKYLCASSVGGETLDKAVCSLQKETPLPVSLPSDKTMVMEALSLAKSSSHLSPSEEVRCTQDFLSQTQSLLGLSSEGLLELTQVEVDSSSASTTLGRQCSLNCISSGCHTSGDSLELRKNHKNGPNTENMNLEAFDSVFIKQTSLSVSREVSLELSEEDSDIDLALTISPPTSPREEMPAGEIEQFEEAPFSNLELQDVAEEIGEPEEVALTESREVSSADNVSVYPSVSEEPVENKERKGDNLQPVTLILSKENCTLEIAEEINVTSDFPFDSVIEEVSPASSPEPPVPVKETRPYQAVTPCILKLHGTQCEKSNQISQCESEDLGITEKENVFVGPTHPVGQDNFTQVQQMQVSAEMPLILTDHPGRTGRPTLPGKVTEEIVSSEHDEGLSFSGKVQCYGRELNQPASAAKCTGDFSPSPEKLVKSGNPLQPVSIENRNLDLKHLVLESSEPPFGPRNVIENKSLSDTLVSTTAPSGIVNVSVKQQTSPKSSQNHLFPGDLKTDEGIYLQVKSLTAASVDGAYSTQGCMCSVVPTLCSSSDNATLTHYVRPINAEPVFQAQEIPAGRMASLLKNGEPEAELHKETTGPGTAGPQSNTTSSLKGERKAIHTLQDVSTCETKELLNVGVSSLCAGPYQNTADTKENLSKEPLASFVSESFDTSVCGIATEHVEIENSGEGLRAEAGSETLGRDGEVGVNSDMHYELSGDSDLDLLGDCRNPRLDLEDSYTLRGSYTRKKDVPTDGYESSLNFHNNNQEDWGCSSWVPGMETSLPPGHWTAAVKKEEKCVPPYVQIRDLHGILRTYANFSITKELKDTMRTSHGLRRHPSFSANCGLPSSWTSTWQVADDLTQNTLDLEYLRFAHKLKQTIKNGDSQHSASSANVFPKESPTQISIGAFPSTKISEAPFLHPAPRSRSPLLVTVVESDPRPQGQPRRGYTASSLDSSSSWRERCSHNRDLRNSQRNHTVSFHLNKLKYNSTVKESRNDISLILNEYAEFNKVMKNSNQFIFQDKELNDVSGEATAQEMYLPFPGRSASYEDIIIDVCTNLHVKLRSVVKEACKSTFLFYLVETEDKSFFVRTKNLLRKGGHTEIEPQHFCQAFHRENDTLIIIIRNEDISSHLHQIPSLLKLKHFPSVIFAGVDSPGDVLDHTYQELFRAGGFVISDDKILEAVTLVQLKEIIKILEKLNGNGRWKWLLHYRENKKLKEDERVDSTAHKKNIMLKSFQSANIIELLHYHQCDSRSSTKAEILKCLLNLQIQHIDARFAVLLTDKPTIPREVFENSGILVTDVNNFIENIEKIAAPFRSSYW
# ± gives the standard deviation of the averaged measurements. The list shows a part of the results.
# Compound: Nc1nc2c(ncn2[C@@H]2O[C@H](COP(=O)(O)OP(=O)(O)OP(=O)(O)O)[C@@H](O)[C@H]2O)c(=O)[nH]1 [guanosine triphosphate]
# Test: NP40-soluble protein abundance relative to vehicle (solubility fold change) (ratio); higher = more soluble protein in presence of GTP
# Protocol: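 Solubility proteome profiling in Jurkat crude lysate. Lysate was treated with Mg-GTP (0.1-10 mM) for 10 min at room temperature and 3 min at 37 °C, then solubilised with 0.8% NP40 and benzonase, followed by ultracentrifugation. Proteins were quantified by TMT10 LC-MS/MS; the value is the NP40-soluble abundance relative to the NP40-processed vehicle, from 3 independent experiments.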
Target,NP40-soluble protein abundance (concentration: 0.1mM),NP40-soluble protein abundance (concentration: 0.5mM),NP40-soluble protein abundance (concentration: 1mM),NP40-soluble protein abundance (concentration: 2mM),NP40-soluble protein abundance (concentration: 4mM),NP40-soluble protein abundance (concentration: 6mM),NP40-soluble protein abundance (concentration: 8mM),NP40-soluble protein abundance (concentration: 10mM)
UniProt Q86WJ1 and related entries,0.992 ± 0.051,0.998 ± 0.052,0.931 ± 0.083,0.913 ± 0.053,0.913 ± 0.069,0.899 ± 0.058,0.877 ± 0.084,0.842 ± 0.076
METTL3 (UniProt Q86U44),0.967 ± 0.058,1.01 ± 0.061,0.969 ± 0.062,0.948 ± 0.076,0.911 ± 0.06,0.932 ± 0.058,0.92 ± 0.085,0.931 ± 0.063
SLC27A4 (UniProt Q6P1M0),1.04 ± 0.011,1.02 ± 0.023,1.05 ± 0.018,1.03 ± 0.017,1.07 ± 0.023,1.05 ± 0.02,1.14 ± 0.064,1.12 ± 0.041
ERAP2 (UniProt Q6P179),1.01 ± 0.015,0.994 ± 0.057,0.961 ± 0.029,0.977 ± 0.063,0.954 ± 0.043,0.957 ± 0.041,0.93 ± 0.038,0.92 ± 0.056
UniProt Q5VWN6,1.05 ± 0.038,0.989 ± 0.045,0.979 ± 0.016,1.05 ± 0.08,1.09 ± 0.045,1.17 ± 0.086,1.17 ± 0.11,1.21 ± 0.09
